Results from PubChem BioAssay AID264 (DTP/NCI, 2004).
The list is a part of this screen's results and no random one: it is rich in T/C values a quarter to a half above the control, in often repeated tests (any T/C) and in doses without a T/C. Other doses and runs of a compound stand elsewhere. T/C gives the treated animals as a percentage of the vehicle group. Schedules are NCI's codes, read here as Q, the interval in days (D) or hours (H), X, the number of doses. Some T/C values carry the count of animals alive at the toxicity check (mostly the fifth day); where none is given, no animal had died by that day. Some entries hold several experiments; the values are given in rising order. Some entries give survivors of the animals treated and no T/C: the source files T/C as zero there, which appears to mark a toxic dose or a test without result, not a measured value. Survivors were counted at the toxicity check, usually on the fifth day, unless a day is given; later deaths do not show.

Tested on: nude mice, LX-1 lung xenograft intrarenal, tumor weight T/C
Assay: NCI In Vivo Anticancer Drug Screen. Data for tumor model Human Lung LX-1 Xenograft (intrarenal inoculation) in NU/NU Swiss (nude) mice
Conditions: T/C endpoint: mean tumor weight change, higher T/C = larger tumour; for T/C: evaluated on day 11
Outline: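 Activity was scored by measuring tumors in treated animals and in vehicle controls, then reporting the treated result as a fraction of the control result.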

[1] = dose: 600.0 mg/kg/injection, schedule: Q04DX003 (sc), vehicle: saline
[2] = dose: 1200.0 mg/kg/injection, schedule: Q04DX003 (sc), vehicle: saline with Tween-80
[3] = dose: 100.0 mg/kg/injection, schedule: Q01DX010 (sc), vehicle: saline with Tween-80
[4] = dose: 200.0 mg/kg/injection, schedule: Q01DX010 (sc), vehicle: saline with Tween-80
[5] = dose: 400.0 mg/kg/injection, schedule: Q01DX010 (sc), vehicle: saline with Tween-80
[6] = dose: 12.0 mg/kg/injection, schedule: Q01DX010 (sc), vehicle: water

With `CC[C@]1(O)C[C@H]2CN(CCc3c([nH]c4ccccc34)[C@@](C(=O)OC)(c3cc4c(cc3OC)N(C=O)[C@H]3[C@@](O)(C(=O)OC)[C@H](OC(C)=O)[C@]5(CC)C=CCN6CC[C@]43[C@@H]65)C2)C1` the survivor count (dose: 1.0 mg/kg/injection, schedule: Q01DX010 (sc), vehicle: saline) was 1 of 3 on day 11.
For `CNc1nc2c(N)ncnc2n1C1OC(CO)C(O)C1O` (stereo unspecified), the survivor count (dose: 200.0 mg/kg/injection, schedule: Q04DX003 (sc), vehicle: saline) was 0 of 6 on day 11.
In the case of `CCCCOC(=O)/C=C(\Br)C(=O)OCCCC`, the survivor count (dose: 800.0 mg/kg/injection, schedule: Q01DX010 (sc), vehicle: saline with Tween-80) is reported as 0 of 3 on day 11.
For `CS(=O)(=O)OCCN(CCOS(C)(=O)=O)c1ccc(C=O)cc1`, the T/C (dose: 6.25 mg/kg/injection, schedule: Q01DX010 (sc), vehicle: saline) was 143 % of control.
With `O=C1c2ccccc2C(=O)c2c3c(cc(NCCNCCO)c21)N(CCO)CCN3` the survivor count (dose: 1600.0 mg/kg/injection, schedule: Q04DX003 (sc), vehicle: DMSO) was 0 of 6 on day 11.
For `C1CC[N-]CC1.C1CC[N-]CC1.C1CC[N-]CC1.[Cl][Rh]([Cl])[Cl]`, the T/C (dose: 300.0 mg/kg/injection, schedule: Q04DX003 (sc), vehicle: saline) was 129 % of control and the survivor count [1] was 3 of 6 on day 11.
For `CC[C@@]1(O)C[C@H](OC2CC(N(C)C)C(OC3CC(O)C(OC4CCC(=O)C(C)O4)C(C)O3)C(C)O2)c2c(cc3c(c2O)C(=O)c2c(O)cccc2C3=O)[C@H]1C(=O)OC` (stereo partly specified), the T/C (dose: 0.5 mg/kg/injection, schedule: Q01DX010 (ip), vehicle: water) was 54, 61, 106, 134 % of control, the T/C (dose: 1.0 mg/kg/injection, schedule: Q01DX010 (ip), vehicle: water) was 30 [2 of 2 alive on day 11], 36 [2 of 2 alive on day 11], 39, 76, 80 % of control and the T/C (dose: 2.0 mg/kg/injection, schedule: Q01DX010 (ip), vehicle: water) was 16, 27, 30, 38 [2 of 3 alive on day 11], 88 % of control. The survivor count (dose: 4.0 mg/kg/injection, schedule: Q01DX010 (ip), vehicle: water) was 0 of 3 on day 11 and 1 of 3 on day 11, the survivor count (dose: 4.0 mg/kg/injection, schedule: Q01DX010 (sc), vehicle: water) was 3 of 6 on day 11 and the survivor count (dose: 6.65 mg/kg/injection, schedule: Q04DX003 (ip), vehicle: water) was 1 of 3 on day 11. The survivor count (dose: 8.0 mg/kg/injection, schedule: Q01DX010 (ip), vehicle: water) was 0 of 3 on day 11 and the survivor count (dose: 13.3 mg/kg/injection, schedule: Q04DX003 (ip), vehicle: water) was 0 of 3 on day 11.
For `CC1OC(OC2CC(O)(C(=O)CO)Cc3c(O)c4c(c(O)c32)C(=O)c2ccccc2C4=O)CC(N)C1O` (stereo unspecified), the T/C (dose: 0.25 mg/kg/injection, schedule: Q01DX010 (sc), vehicle: water) was 138 % of control [2 of 2 alive on day 11] and the survivor count (dose: 2.0 mg/kg/injection, schedule: Q01DX010 (sc), vehicle: water) was 0 of 3 on day 11.
With `O=NN(CCCl)C(=O)NC1CCCCC1` the T/C (dose: 12.5 mg/kg/injection, schedule: Q04DX003 (sc), vehicle: Klucel (hydroxypropylcellulose) (HPC)) was 128 % of control, the survivor count (dose: 32.0 mg/kg/injection, schedule: Q01DX010 (ip), vehicle: saline with Tween-80) was 0 of 3 on day 11 and the survivor count (dose: 64.0 mg/kg/injection, schedule: Q01DX010 (sc), vehicle: saline with Tween-80) was 1 of 3 on day 11. The survivor count (dose: 106.65 mg/kg/injection, schedule: Q04DX003 (ip), vehicle: saline with Tween-80) was 0 of 3 on day 11.
For `O=c1n(CC2CO2)c(=O)n(CC2CO2)n1CC1CO1` (stereo unspecified), the survivor count (dose: 50.0 mg/kg/injection, schedule: Q04DX003 (sc), vehicle: saline) was 2 of 6 on day 11 and the survivor count (dose: 100.0 mg/kg/injection, schedule: Q04DX003 (sc), vehicle: saline) was 0 of 6 on day 11.
`C[C@]12CCC(=O)C=C1CC[C@@H]1[C@@H]2C(=O)C[C@@]2(C)[C@H]1CC[C@]2(O)C(=O)CO` was tested, and the survivor count (dose: 2400.0 mg/kg/injection, schedule: Q04DX003 (sc), vehicle: Klucel (hydroxypropylcellulose) (HPC)) was 2 of 6 on day 11.
For `CC(=O)Nc1ccc(O)c(O)c1`, the T/C [2] was 128 % of control [5 of 6 alive on day 11].
For `CCC(=O)Sc1ccccc1C(=O)Nc1ccc(Cl)cc1`, the T/C [2] was 146 % of control.
In the case of `Nc1n[nH]c(N)n1`, the survivor count (dose: 1600.0 mg/kg/injection, schedule: Q01DX010 (sc), vehicle: saline) is reported as 1 of 3 on day 11.
`CC1=CC(C)(C)Nc2ccc(CSc3ccccc3)cc21` was tested, and the survivor count (dose: 600.0 mg/kg/injection, schedule: Q01DX010 (sc), vehicle: saline + Tween-80 + alcohol) was 1 of 6 on day 11.
With `CCCCNCCCNCCCNC(=O)c1csc(-c2csc(CCNC(=O)C(NC(=O)C(C)C(O)C(C)NC(=O)C(NC(=O)c3nc(C(CC(N)=O)NCC(N)C(N)=O)nc(N)c3C)C(OC3OC(CO)C(O)C(O)C3OC3OC(CO)C(O)C(OC(N)=O)C3O)c3cnc[nH]3)C(C)O)n2)n1` (stereo unspecified) the survivor count (dose: 64.0 mg/kg/injection, schedule: Q01DX010 (sc), vehicle: saline) was 0 of 3 on day 11.
In the case of `C1CNCOC1`, the survivor count [1] is reported as 3 of 6 on day 11, the survivor count (dose: 1200.0 mg/kg/injection, schedule: Q04DX003 (sc), vehicle: saline) is reported as 0 of 6 on day 11 and the survivor count (dose: 2400.0 mg/kg/injection, schedule: Q04DX003 (sc), vehicle: saline) is reported as 0 of 6 on day 11.
In the case of `CC1(CO)C(O)CCC2(C)C1CCC1CC3CC12CCC3(O)CO` (stereo unspecified), the T/C (dose: 50.0 mg/kg/injection, schedule: Q01DX010 (sc), vehicle: saline with Tween-80) is reported as 46, 54, 62 [2 of 3 alive on day 11], 89, 111 % of control, the T/C [3] is reported as 13 [2 of 2 alive on day 11], 16, 33, 54, 63 % of control and the survivor count [3] is reported as 1 of 3 on day 11. The T/C [4] was 2 [2 of 3 alive on day 11], 5 [2 of 3 alive on day 11], 48, 90 % of control [5 of 6 alive on day 11], the survivor count [4] was 0 of 3 on day 11 and the T/C [5] was 29 and 80 % of control. For the same compound, the survivor count [5] was 0 of 3 on day 11.
With `Cc1c(N)nc(C(CC(N)=O)NCC(N)C(N)=O)nc1C(=O)NC(C(=O)NC(C)C(O)C(C)C(=O)NC(C(=O)NCCc1nc(-c2nc(C(=O)NCCCNCCCc3ccccn3)cs2)cs1)C(C)O)C(OC1OC(CO)C(O)C(O)C1OC1OC(CO)C(O)C(OC(N)=O)C1O)c1cnc[nH]1` (stereo unspecified) the T/C [6] was 127 % of control, the survivor count [6] was 1 of 3 on day 11 and the survivor count (dose: 48.0 mg/kg/injection, schedule: Q01DX010 (sc), vehicle: water) was 0 of 3 on day 11 and 1 of 3 on day 11.
`CC(C)CC(NC(=O)CF)C(=O)O` (stereo unspecified) was tested, and the survivor count (dose: 40.0 mg/kg/injection, schedule: Q04DX003 (sc), vehicle: saline) was 0 of 6 on day 11.
For `N#C[C@H](OC1OC(COC2OC(CO)C(O)C(O)C2O)C(O)C(O)C1O)c1ccccc1` (stereo partly specified), the T/C (dose: 450.0 mg/kg/injection, schedule: Q04DX003 (sc), vehicle: suspension in saline) was 135 % of control and the T/C (dose: 3600.0 mg/kg/injection, schedule: Q04DX003 (sc), vehicle: suspension in saline) was 134 % of control [5 of 6 alive on day 11].
`O=C([CH-]C(=O)C(F)(F)F)c1ccccc1.O=C([CH-]C(=O)C(F)(F)F)c1ccccc1.O=C([CH-]C(=O)C(F)(F)F)c1ccccc1.O=C([CH-]C(=O)C(F)(F)F)c1ccccc1.[Eu+3].c1ccncc1` was tested, and the survivor count (dose: 1600.0 mg/kg/injection, schedule: Q01DX010 (sc), vehicle: Klucel (hydroxypropylcellulose) (HPC)) was 0 of 3 on day 11.
With `CN(C)N=Nc1ccc(S(N)(=O)=O)cc1` the survivor count (dose: 800.0 mg/kg/injection, schedule: Q01DX010 (sc), vehicle: Klucel (hydroxypropylcellulose) (HPC)) was 0 of 6 on day 11 and 3 of 6 on day 11.
In the case of `Nc1ncn(C2OC(CO)C(O)C2O)c(=O)n1` (stereo unspecified), the T/C (dose: 0.38 mg/kg/injection, schedule: Q01DX010 (sc), vehicle: saline) is reported as 142 % of control, the survivor count (dose: 1.5 mg/kg/injection, schedule: Q01DX010 (sc), vehicle: saline) is reported as 0 of 3 on day 11 and the survivor count (dose: 1536.0 mg/kg/injection, schedule: Q04DX003 (sc), vehicle: suspension in saline) is reported as 1 of 6 on day 11.
With `CC(=O)OCC1OC(n2cc(CBr)nn2)C(OC(C)=O)C(OC(C)=O)C1OC(C)=O` (stereo unspecified) the T/C [4] was 130 % of control.
